Values quoted from earlier work as cited in article PMC4641600, “Novel Activities of Select NSAID R-Enantiomers against Rac1 and Cdc42 GTPases” (PLoS ONE, 2015).

Settings: typical oral dosing (S-Naproxen 500 mg; 6-MNA 750-20000 mg of nabumetone); ref Roche Investigator’s brochure, 9, 10, 17-19, 21, 23; cited from earlier work

## COc1ccc2cc([C@H](C)C(=O)O)ccc2c1 [S-naproxen]
  Serum Cmax: 97.4 µg/mL
